In PubChem BioAssay AID1347076 (National Center for Advancing Translational Sciences (NCATS), 2019):
Out of some 400,000 compounds screened, about 13,000 (3.2%) were called active. This list was built around the results that the source calls inconclusive (neither active nor inactive); the mix of calls is not that of the screen. Calls come from the whole dose curve; as a rule, active = well fitted cell-killing curve with a large enough effect; inconclusive = small, poorly fitted or top-dose-only effect, or effect the other way; inactive = flat fitted curve, though single readings scatter. Where the call is inconclusive, the potency comes from a doubtful curve fit.

assay: qHTS assay for MDR1-selective chemotherapeutics: Primary screen using the drug-selected MDR subline cells KB-V1; settings: KB-V1 MDR cells viability, CellTiter-Glo, 72 h; activity change, negative = cytotoxicity: at 46.1 µM (top of the series); note: nearly all actives have a fitted effect of over 60% in size
How it was run: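 KB-V1 MDR subline cells in DMEM (phenol-red free, 10% FBS) exposed to compounds in qHTS concentration series for 72 h at 37 degrees C. Viability read by CellTiter-Glo luminescence; concentration-effect curves fitted after normalization and correction.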
% is set by controls: 0 for no effect and ±100 for the full control effect; potency is the fitted concentration of half-maximal effect.

Row | SMILES | Potency | activity change, negative = cytotoxicity
1 | CC(C)Cc1nnc(NC(=O)CSc2nc(N)cc(=O)[nH]2)s1 | inactive | 
2 | O=C1CCN(Cc2ccccc2)C=C1c1ccc(Br)cc1 | inconclusive: 18.4 µM [cytotoxic, single point] | 
3 | COc1ccc(S(=O)(=O)N2c3ccccc3OCC2CC(=O)O)cc1 (stereo not drawn) | inconclusive: 23.1 µM [cytotoxic, partial curve] | 
4 | Cc1ncc([N+](=O)[O-])n1S(=O)(=O)c1ccc2c(c1)OCCO2 |  | inconclusive: 38.3%
5 | CCn1nnnc1NCc1ccc(OCc2c(F)cccc2Cl)c(OC)c1 | inconclusive: 18.4 µM [cytotoxic, partial curve] | 
6 | CCCn1c(Nc2ccc(Cl)cc2)nc2ccccc21 | inconclusive: 20.6 µM [cytotoxic, single point] | 
7 | CCOC(=O)c1cc2c(=Cc3ccc(N(C)C)cc3)c3ccccc3n2[n+]1C | inconclusive: 23.1 µM [cytotoxic, single point] | 
8 | CCc1ccccc1N(CC(=O)NC(C)C)C(=O)CCC(=O)Nc1nccs1 | inconclusive: 25.9 µM [rising, single point] | 
9 | C=CCCCOc1ccc(C(=O)O)cc1 | inconclusive: 18.4 µM [rising, single point] | 
10 | Cc1nc(SCC(=O)NNC(=O)c2ccc(F)cc2)c2ccccc2n1 | inconclusive: 29.1 µM [rising, single point] | 
11 | COc1ccc(-c2coc3c(C(=O)NCc4ccc(C(F)(F)F)cc4)cccc23)c(C)c1 | inconclusive: 25.9 µM [cytotoxic, single point] | 
12 | Cc1cccc(CC(=O)N2CC(=O)Nc3ccc(Br)cc3C2c2ccc(F)cc2)c1 (stereo not drawn) | inactive | 
13 | O=C(NCc1cccs1)c1cc(-c2ccc(O)cc2)on1 | inconclusive: 18.4 µM [cytotoxic, single point] | 
14 | CCOC(=O)c1ccc(NC(=O)Cn2c(=O)cc(C)c3c(C)nn(-c4ccc(CC)cc4)c32)cc1 | inactive | 
15 | COc1ccc(-n2nc(C(=O)N3CCCCC3C)c3c4ccccc4n(C)c3c2=O)cc1Cl (stereo not drawn) | inactive | 
16 | CNC(=O)CCc1nc(-c2ccc(C(C)(C)C)cc2)no1 | inactive | 
17 | COc1cccc(/C=C/c2nc(C#N)c(N3CCC(C(N)=O)CC3)o2)c1 | inactive | 
18 | CC(C)CCNCC(O)CON=C1c2ccccc2-c2ccccc21 (stereo not drawn) | inconclusive: 29.1 µM [cytotoxic, single point] | 
19 | Cc1ccc(C)c(Nc2nc(-c3ccncc3)nc3ccccc23)c1 | inconclusive: 23.1 µM [cytotoxic, single point] | 
20 | Cc1ccc2c(c1)C1C[N+](C)(CC(=O)Nc3ccccc3Cl)CCC1N2C(=O)c1ccccc1Cl (stereo not drawn) | inconclusive: 13 µM [rising, partial curve] | 
21 | COc1ccccc1Nc1sc(C(=O)c2ccc(F)cc2)c(N)c1S(=O)(=O)c1ccc(C)cc1 | inconclusive: 5.8 µM [cytotoxic, full curve] | 
22 | O=C(CNC(=O)/C=C/c1ccco1)N=Nc1c(O)[nH]c2ccccc12 |  | inconclusive: -78.8%
23 | Cn1cc(C(=O)N/N=C/c2cccs2)c2ccccc21 | inactive | 

Laid out differently: 16 of the compounds above.

| Row | SMILES | Potency | activity change, negative = cytotoxicity |
| --- | --- | --- | --- |
| 1 | CC(C)Cc1nnc(NC(=O)CSc2nc(N)cc(=O)[nH]2)s1 | inactive |  |
| 2 | O=C1CCN(Cc2ccccc2)C=C1c1ccc(Br)cc1 | inconclusive: 18.4 µM [cytotoxic, single point] |  |
| 3 | COc1ccc(S(=O)(=O)N2c3ccccc3OCC2CC(=O)O)cc1 (stereo not drawn) | inconclusive: 23.1 µM [cytotoxic, partial curve] |  |
| 4 | Cc1ncc([N+](=O)[O-])n1S(=O)(=O)c1ccc2c(c1)OCCO2 |  | inconclusive: 38.3% |
| 5 | CCn1nnnc1NCc1ccc(OCc2c(F)cccc2Cl)c(OC)c1 | inconclusive: 18.4 µM [cytotoxic, partial curve] |  |
| 6 | CCCn1c(Nc2ccc(Cl)cc2)nc2ccccc21 | inconclusive: 20.6 µM [cytotoxic, single point] |  |
| 7 | CCOC(=O)c1cc2c(=Cc3ccc(N(C)C)cc3)c3ccccc3n2[n+]1C | inconclusive: 23.1 µM [cytotoxic, single point] |  |
| 8 | CCc1ccccc1N(CC(=O)NC(C)C)C(=O)CCC(=O)Nc1nccs1 | inconclusive: 25.9 µM [rising, single point] |  |
| 9 | C=CCCCOc1ccc(C(=O)O)cc1 | inconclusive: 18.4 µM [rising, single point] |  |
| 10 | Cc1nc(SCC(=O)NNC(=O)c2ccc(F)cc2)c2ccccc2n1 | inconclusive: 29.1 µM [rising, single point] |  |
| 11 | COc1ccc(-c2coc3c(C(=O)NCc4ccc(C(F)(F)F)cc4)cccc23)c(C)c1 | inconclusive: 25.9 µM [cytotoxic, single point] |  |
| 12 | Cc1cccc(CC(=O)N2CC(=O)Nc3ccc(Br)cc3C2c2ccc(F)cc2)c1 (stereo not drawn) | inactive |  |
| 13 | O=C(NCc1cccs1)c1cc(-c2ccc(O)cc2)on1 | inconclusive: 18.4 µM [cytotoxic, single point] |  |
| 14 | CCOC(=O)c1ccc(NC(=O)Cn2c(=O)cc(C)c3c(C)nn(-c4ccc(CC)cc4)c32)cc1 | inactive |  |
| 15 | COc1ccc(-n2nc(C(=O)N3CCCCC3C)c3c4ccccc4n(C)c3c2=O)cc1Cl (stereo not drawn) | inactive |  |
| 16 | CNC(=O)CCc1nc(-c2ccc(C(C)(C)C)cc2)no1 | inactive |  |

Further structures follow:

Row | SMILES | Potency | activity change, negative = cytotoxicity
24 | O=C(N/C(=C\c1ccc(Br)cc1)C(=O)N1CCCC1)c1ccccc1F | inconclusive: 18.4 µM [cytotoxic, partial curve, poor fit] | 
25 | CCN(CC)C(=O)c1sc(NC(=O)Cc2cccs2)c(C#N)c1C | inconclusive: 16.4 µM [cytotoxic, partial curve] | 
26 | CC(Oc1ccc2oc3ccccc3c2c1)C(=O)NC12CC3CC(CC(C3)C1)C2 (stereo not drawn) | inactive | 
27 | O=C(Nc1ccccc1N1CCCCC1)C1CCN(C(=O)c2ccc(Cl)cc2)CC1 | inconclusive: 29.1 µM [cytotoxic, single point] | 
28 | COc1ccc(-c2nc(NC(=O)Cn3c(=O)oc4ccccc43)sc2C)cc1 | inactive | 
29 | CCOc1ccc(N2C(=O)CC(NCC#N)C2=O)cc1 (stereo not drawn) | inconclusive: 29.1 µM [rising, partial curve, poor fit] | 
30 | COc1ccc(CNC(=O)Cn2nc(C(F)(F)F)cc2C)cc1 | inconclusive: 10.3 µM [rising, partial curve, poor fit] | 
31 | O=C1C2C3C=CC(C3)C2C(=O)N1CCCCCCN1C(=O)C2C3C=CC(C3)C2C1=O (stereo not drawn) | active: 18.4 µM | 
32 | O=C(/C=C/c1cccc(F)c1)Nc1ccc(S(=O)(=O)N2CCOCC2)cc1 | inconclusive: 25.9 µM [cytotoxic, single point] | 
33 | COc1ccc(-c2c(C(F)(F)F)oc3cc(OCC(=O)Nc4ccccc4C(F)(F)F)ccc3c2=O)cc1OC | inconclusive: 1.64 µM [cytotoxic, full curve] | 
34 | OC(CNc1nc(-c2cccnc2)nc2ccccc12)c1ccccc1 (stereo not drawn) | inconclusive: 11.6 µM [cytotoxic, partial curve] | 
35 | Cc1ccccc1OCC(=O)NCC(=O)N/N=C/c1ccc(Br)o1 | inconclusive: 20.6 µM [cytotoxic, partial curve, poor fit] | 
36 | COc1ccc(CN2C(=O)c3cccnc3C2=O)cc1S(=O)(=O)N1CCCC(C)C1 (stereo not drawn) | inactive | 
37 | Cc1ccc(C(=O)Nc2nc(-c3ccccn3)cs2)cc1S(=O)(=O)N1CCOCC1 | inconclusive: 29.1 µM [cytotoxic, single point] | 
38 | CC1(C(=O)NS(=O)(=O)c2cccc(F)c2)CCN1C(=O)C1(c2ccc(Cl)cc2)CCC1 (stereo not drawn) | inactive | 
39 | CCOC(=O)CN1C(=O)S/C(=C/c2ccc(O)c([N+](=O)[O-])c2)C1=O | inconclusive: 18.4 µM [cytotoxic, partial curve] | 
40 | CCC(=O)OCOc1ccc(/C=C2/CCC(CN(C)C)C2=O)cc1 (stereo not drawn) | inconclusive: 3.26 µM [cytotoxic, full curve, poor fit] | 
41 | Cc1cc(C)nc(NC(=O)/C=C/c2ccc3c(c2)OCO3)c1 | inconclusive: 10.3 µM [cytotoxic, partial curve] | 
42 | CN(Cc1cnn(-c2ccccc2)c1)C(=O)c1cccc(S(=O)(=O)Nc2ccccc2F)c1 | inactive | 
43 | CCCCC(=O)NC(c1ccccc1OC)c1ccc2cccnc2c1O (stereo not drawn) | inconclusive: 5.17 µM [cytotoxic, partial curve] | 
44 | CC(=O)c1sc(NC(=O)c2ccc(F)c(S(=O)(=O)N3CCOCC3)c2)nc1C | inactive | 
45 | Cc1nc(SCC(=O)Nc2ccc3c(c2)OCCO3)c2oc3ccccc3c2n1 | active: 16.4 µM | 
46 | CN(C)CC/C=C1\c2ccccc2Sc2ccc(Cl)cc21 | inconclusive: 25.9 µM [cytotoxic, single point] | 

Row | SMILES | Potency | activity change, negative = cytotoxicity
47 | COc1cc(/C=N/NC(=S)Nc2cccc(Cl)c2C)ccc1OCC(=O)N1CC(C)OC(C)C1 (stereo not drawn) | active: 4.61 µM | 
48 | CC1C(=O)N(Cc2cn(Cc3ccco3)nn2)CCS(=O)(=O)N1Cc1ccc(-c2ccc(Cl)c(Cl)c2)cc1 (stereo not drawn) | inconclusive: 0.184 µM [cytotoxic, partial curve, poor fit] | 
49 | COc1ccc(C(CNC(=S)NCc2ccccc2)N2CCCC2)cc1 (stereo not drawn) | inconclusive: 14.6 µM [cytotoxic, single point] | 
50 | COc1ccc(CNC(=O)CN(Cc2ccco2)C(=O)CCC(=O)Nc2ccccn2)cc1 | inactive | 
51 | Cc1cccc(C(=O)N2CC3(C)CC2CC(C)(C)C3)c1 (stereo not drawn) | inconclusive: 18.4 µM [cytotoxic, single point] | 
52 | CCOc1ccc(NS(=O)(=O)c2ccc(OCC)c3ncccc23)cc1 | active: 13 µM | 
53 | O=C(NC1(C(=O)O)CCCC1)C(Cl)Cl | inconclusive: 23.1 µM [rising, single point] | 
54 | CCN(CC)S(=O)(=O)c1cccc(-c2nnc(SCC(=O)c3cc(C)n(C)c3C)o2)c1 | inconclusive: 9.2 µM [cytotoxic, partial curve, poor fit] | 
55 | COc1cccc(C(=O)C2CCCN(Cc3cccn3-c3cccnc3)C2)c1 (stereo not drawn) | inactive | 
56 | Cc1ccc(NC(=O)NC2=N/C(=C(/C#N)C(=O)N3CCCC3)c3ccccc32)cc1 | inconclusive: 2.59 µM [cytotoxic, partial curve] | 
57 | CCCCCc1c(C)nc(NCc2ccccc2)[nH]c1=O | inconclusive: 16.4 µM [cytotoxic, single point] | 
58 | COc1ccc(-c2nnc(NC(=O)c3ccc(S(=O)(=O)N4CCc5ccccc5C4)cc3)o2)cc1 | active: 10 µM | 
59 | O=C(CN1C(=O)CCSc2ccc(S(=O)(=O)N3CCOCC3)cc21)Nc1cccc(F)c1 | inactive | 
60 | O=C1CCCC2=C1C(c1ccccc1)CC(=O)N2c1ccc(F)cc1F (stereo not drawn) | inconclusive: 8.2 µM [cytotoxic, partial curve, poor fit] | 
61 | Nc1c(C(=O)c2ccccc2)oc2ccc(Br)cc12 | inconclusive: 20.6 µM [cytotoxic, partial curve] | 
62 | COc1ccc(CCNCC(=O)Nc2ccccc2C(F)(F)F)cc1 | inconclusive: 18.4 µM [cytotoxic, single point] | 
63 | O=C(NCCc1ccccc1)C(c1cccs1)N(C(=O)CCl)c1ccc(Cl)cc1 (stereo not drawn) | inconclusive: 23.1 µM [cytotoxic, single point] | 
64 | NS(=O)(=O)c1cccc(NC(=O)CC23CC4CC(CC(Br)(C4)C2)C3)c1 | inconclusive: 29.1 µM [rising, single point] | 
65 | COc1ccc(Cc2nc3ccc(C(=O)N(C)CCc4cnn(C)c4)cc3o2)cc1OC |  | inconclusive: -51.1%
66 | COC(=O)C1=C(C)NC(=O)CC1c1cc(Br)ccc1F (stereo not drawn) | inconclusive: 0.0073 µM [cytotoxic, full curve] | 
67 | CCN(CC)CCN1c2ccccc2Sc2ccc3ccccc3c21 | inactive | 
68 | Cc1cccc(NC(=S)N/N=C/c2c[nH]c3ccccc23)c1 | inconclusive: 11.6 µM [cytotoxic, partial curve, poor fit] | 
